The other results are listed elsewhere or left out.

The chains behind the UniProt entries cited, without tags or fusion partners. Where a name states a change or a piece, a line headed by the entry shows the natural chain unless it says otherwise.
UniProt Q9H2H9: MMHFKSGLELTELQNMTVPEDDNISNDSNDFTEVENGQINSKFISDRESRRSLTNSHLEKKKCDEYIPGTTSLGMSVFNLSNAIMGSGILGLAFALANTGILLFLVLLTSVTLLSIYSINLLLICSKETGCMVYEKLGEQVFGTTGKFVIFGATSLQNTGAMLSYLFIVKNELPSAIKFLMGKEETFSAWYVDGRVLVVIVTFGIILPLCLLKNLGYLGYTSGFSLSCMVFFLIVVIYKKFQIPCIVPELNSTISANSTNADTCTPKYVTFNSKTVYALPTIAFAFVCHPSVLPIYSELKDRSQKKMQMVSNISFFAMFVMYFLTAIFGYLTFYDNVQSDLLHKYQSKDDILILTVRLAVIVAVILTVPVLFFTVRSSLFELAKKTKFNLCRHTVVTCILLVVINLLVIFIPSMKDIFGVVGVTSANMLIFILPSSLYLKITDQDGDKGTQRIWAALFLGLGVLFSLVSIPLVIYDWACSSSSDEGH
UniProt O95258: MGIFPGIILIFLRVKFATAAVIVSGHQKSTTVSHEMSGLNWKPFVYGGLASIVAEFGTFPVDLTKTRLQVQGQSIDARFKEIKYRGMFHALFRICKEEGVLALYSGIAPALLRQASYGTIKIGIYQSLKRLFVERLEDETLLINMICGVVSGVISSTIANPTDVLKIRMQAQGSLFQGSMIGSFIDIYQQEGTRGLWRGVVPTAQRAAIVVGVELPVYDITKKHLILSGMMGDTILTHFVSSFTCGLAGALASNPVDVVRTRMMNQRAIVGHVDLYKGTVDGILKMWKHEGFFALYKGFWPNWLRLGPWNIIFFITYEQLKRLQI
UniProt O00400: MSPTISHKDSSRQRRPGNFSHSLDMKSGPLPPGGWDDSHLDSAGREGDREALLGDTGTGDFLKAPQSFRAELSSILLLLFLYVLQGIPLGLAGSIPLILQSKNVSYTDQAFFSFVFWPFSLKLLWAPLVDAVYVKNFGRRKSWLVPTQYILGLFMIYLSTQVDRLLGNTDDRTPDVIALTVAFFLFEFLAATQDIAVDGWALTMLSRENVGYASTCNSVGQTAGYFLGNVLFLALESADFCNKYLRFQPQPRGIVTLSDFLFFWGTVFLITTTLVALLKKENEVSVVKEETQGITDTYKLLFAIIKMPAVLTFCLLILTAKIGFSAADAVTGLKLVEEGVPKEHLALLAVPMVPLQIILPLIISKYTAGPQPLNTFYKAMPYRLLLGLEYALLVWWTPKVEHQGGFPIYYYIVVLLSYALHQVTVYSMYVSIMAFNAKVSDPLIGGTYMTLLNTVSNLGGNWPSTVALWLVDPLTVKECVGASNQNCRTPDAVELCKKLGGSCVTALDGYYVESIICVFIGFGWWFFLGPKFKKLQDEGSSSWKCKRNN
UniProt Q8WU79: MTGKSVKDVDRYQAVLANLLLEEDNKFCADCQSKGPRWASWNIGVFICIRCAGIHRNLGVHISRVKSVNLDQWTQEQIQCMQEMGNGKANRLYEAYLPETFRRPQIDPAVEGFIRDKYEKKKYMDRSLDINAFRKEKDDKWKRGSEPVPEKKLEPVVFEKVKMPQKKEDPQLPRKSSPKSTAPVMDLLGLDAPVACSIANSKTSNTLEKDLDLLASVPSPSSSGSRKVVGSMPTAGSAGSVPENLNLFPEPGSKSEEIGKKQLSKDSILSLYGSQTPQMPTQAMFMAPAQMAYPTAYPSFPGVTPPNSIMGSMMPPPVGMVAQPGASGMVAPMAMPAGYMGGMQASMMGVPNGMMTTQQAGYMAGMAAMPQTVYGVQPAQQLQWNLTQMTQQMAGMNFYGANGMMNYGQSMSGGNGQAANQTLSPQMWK
UniProt Q8TB61: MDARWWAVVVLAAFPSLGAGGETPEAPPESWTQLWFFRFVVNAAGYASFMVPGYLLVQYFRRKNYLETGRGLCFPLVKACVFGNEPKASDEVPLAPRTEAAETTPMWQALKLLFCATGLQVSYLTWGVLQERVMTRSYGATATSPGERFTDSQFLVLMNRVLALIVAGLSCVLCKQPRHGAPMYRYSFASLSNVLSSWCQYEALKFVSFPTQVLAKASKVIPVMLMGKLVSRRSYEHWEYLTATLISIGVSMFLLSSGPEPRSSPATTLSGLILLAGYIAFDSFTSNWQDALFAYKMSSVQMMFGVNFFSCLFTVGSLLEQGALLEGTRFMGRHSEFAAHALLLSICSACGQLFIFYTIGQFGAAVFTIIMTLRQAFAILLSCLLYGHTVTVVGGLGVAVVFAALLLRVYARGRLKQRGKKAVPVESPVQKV
UniProt Q9H1U9: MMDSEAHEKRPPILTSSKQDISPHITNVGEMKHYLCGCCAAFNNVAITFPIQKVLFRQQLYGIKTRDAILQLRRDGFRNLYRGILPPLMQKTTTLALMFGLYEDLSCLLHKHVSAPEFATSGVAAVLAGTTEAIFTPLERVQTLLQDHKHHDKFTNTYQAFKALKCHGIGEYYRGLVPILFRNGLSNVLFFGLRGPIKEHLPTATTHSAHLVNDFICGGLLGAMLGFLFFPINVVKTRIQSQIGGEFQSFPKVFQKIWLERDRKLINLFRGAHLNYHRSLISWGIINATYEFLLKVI
UniProt Q9NYZ2: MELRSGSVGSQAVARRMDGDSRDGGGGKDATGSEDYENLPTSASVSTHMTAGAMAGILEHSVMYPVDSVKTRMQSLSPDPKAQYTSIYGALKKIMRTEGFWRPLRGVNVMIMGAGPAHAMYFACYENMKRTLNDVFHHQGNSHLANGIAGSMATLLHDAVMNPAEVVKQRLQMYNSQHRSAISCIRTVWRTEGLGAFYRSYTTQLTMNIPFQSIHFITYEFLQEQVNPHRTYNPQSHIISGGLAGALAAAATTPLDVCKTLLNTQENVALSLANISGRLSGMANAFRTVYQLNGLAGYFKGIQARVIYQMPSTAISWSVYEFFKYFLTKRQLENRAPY
UniProt L0R6Q1: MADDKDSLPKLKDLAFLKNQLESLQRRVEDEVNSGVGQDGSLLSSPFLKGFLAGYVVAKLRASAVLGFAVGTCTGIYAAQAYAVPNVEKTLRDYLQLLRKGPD
UniProt Q96AG3: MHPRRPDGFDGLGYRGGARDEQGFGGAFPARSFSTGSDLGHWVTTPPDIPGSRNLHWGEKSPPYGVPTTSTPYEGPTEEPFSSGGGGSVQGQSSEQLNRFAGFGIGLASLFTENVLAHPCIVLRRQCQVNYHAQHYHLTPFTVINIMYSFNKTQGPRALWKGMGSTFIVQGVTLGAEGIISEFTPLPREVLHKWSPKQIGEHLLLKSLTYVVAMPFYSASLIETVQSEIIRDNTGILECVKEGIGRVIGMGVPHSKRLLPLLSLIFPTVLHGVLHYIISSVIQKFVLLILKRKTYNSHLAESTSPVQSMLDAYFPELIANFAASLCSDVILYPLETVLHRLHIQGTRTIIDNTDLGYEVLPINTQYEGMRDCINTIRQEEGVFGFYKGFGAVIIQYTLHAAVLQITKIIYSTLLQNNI
UniProt Q9H2G2: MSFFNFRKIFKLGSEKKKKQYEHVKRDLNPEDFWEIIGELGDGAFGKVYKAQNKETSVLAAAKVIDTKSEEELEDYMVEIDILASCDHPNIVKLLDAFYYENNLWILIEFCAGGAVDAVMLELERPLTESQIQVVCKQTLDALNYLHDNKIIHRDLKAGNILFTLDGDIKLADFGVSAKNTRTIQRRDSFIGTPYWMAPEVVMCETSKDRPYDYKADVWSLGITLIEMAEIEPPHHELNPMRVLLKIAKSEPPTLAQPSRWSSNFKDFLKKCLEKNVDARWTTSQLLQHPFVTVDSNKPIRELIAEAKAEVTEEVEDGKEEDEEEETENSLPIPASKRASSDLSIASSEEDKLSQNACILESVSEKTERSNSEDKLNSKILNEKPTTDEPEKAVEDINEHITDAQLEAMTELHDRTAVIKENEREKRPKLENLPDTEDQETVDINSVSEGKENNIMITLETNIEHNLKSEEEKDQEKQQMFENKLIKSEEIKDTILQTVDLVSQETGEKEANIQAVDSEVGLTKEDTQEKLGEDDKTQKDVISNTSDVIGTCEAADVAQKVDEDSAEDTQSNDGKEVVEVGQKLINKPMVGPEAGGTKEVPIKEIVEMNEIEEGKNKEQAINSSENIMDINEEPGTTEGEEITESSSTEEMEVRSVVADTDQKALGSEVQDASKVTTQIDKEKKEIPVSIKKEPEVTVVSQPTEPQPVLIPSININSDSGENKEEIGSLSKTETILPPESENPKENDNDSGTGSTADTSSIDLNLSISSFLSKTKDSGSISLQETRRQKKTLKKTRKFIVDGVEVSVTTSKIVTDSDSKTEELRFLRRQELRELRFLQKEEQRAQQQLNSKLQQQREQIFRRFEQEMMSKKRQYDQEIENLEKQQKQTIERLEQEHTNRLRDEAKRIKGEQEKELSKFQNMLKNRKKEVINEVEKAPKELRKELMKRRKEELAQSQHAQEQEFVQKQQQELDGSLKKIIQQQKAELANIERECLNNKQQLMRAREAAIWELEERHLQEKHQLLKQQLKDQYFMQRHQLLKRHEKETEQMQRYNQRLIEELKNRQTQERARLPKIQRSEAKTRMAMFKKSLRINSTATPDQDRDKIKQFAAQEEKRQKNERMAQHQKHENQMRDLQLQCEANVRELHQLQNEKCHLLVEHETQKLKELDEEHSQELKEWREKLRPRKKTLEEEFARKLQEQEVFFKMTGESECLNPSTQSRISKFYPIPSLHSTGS
UniProt Q02978: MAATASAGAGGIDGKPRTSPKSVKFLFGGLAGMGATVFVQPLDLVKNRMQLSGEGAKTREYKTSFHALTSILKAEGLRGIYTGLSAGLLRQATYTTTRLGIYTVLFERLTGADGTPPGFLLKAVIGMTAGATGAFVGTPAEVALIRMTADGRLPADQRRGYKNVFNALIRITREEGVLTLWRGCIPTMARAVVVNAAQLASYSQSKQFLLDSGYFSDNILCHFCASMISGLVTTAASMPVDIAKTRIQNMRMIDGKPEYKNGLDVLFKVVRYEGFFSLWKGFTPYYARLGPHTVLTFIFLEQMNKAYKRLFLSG
UniProt Q70HW3: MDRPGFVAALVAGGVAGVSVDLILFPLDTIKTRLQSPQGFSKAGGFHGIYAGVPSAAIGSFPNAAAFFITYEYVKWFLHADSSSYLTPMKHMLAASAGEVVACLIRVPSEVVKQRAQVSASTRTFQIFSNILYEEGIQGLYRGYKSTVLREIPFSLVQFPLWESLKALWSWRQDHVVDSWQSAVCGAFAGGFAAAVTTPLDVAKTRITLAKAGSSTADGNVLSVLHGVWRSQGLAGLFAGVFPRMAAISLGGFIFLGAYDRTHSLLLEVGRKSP
UniProt Q8NEW0: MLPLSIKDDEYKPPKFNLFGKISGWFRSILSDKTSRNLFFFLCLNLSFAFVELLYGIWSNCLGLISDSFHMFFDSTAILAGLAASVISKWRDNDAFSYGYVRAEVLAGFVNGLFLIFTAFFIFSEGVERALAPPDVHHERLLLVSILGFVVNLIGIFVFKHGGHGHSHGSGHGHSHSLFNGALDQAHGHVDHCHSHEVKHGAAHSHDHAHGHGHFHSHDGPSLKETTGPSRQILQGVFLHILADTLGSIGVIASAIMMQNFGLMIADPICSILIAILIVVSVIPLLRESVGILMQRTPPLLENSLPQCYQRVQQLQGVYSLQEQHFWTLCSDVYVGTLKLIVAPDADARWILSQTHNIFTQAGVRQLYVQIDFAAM
UniProt Q9BQT8: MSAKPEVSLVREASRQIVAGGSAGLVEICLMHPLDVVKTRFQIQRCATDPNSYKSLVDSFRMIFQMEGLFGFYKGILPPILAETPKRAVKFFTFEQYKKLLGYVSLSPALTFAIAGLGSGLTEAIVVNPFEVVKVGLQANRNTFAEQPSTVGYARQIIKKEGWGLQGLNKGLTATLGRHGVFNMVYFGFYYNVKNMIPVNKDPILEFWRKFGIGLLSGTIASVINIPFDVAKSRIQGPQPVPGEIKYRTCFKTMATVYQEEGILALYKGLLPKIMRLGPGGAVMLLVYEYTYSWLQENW
UniProt Q8IWA5: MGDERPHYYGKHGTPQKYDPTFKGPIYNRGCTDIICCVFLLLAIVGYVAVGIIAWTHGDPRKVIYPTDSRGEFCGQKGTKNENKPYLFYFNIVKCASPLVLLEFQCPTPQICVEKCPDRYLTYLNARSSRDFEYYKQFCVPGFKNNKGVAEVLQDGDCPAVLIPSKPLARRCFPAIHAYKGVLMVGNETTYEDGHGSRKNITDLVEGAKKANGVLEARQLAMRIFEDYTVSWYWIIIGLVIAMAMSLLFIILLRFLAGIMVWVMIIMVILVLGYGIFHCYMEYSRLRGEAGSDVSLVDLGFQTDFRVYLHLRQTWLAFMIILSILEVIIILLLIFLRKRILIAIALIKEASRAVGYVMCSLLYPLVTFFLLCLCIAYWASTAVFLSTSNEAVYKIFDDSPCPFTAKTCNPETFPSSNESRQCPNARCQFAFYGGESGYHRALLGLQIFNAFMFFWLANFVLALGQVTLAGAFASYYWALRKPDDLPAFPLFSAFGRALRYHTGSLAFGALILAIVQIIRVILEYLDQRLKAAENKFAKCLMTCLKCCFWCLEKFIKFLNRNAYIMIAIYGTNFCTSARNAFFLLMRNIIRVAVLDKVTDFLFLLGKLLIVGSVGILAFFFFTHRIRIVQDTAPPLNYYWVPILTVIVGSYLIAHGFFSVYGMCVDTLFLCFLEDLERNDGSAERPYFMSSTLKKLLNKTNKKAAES

Compound in one experiment: CCCS(=O)(=O)Nc1ccc(F)c(C(=O)c2c[nH]c3ncc(-c4ccc(Cl)cc4)cc23)c1F [vemurafenib]
As to the kind of experiment: log2 fold change, soluble protein after heating vs DMSO (PISA); higher = thermal stabilisation; K562 lysate, 10 uM; active = over 0.2 and 3.5 SD of the protein, either way, in both replicates (recomputed). In a few lines:
(§1)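 To prepare the extract, K562 pellets were dounce-homogenised in PBS pH 7.4 with 1 mM MgCl2, giving crude material at 1 mg/mL protein. This was treated with 10 μM compound for 30 min, then heated in aliquots for 3 min over 48°C-58°C before pooling and addition of NP-40 to 0.5% at 4°C. Centrifugation at 21,000xg for 90 min left soluble protein in the supernatant, which TMTpro 16plex LC-MS/MS quantified with equalised channel sums. Results are log-two fold changes in thermal stability compared with solvent controls, from duplicates.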
With SLC9A6 isoform 2 (UniProt Q92581), the log2 fold change is inactive: 0.005.

Turning to SLC25A25 isoform 3 (UniProt Q6KCM7), the log2 fold change was inactive: -0.011.

Consider SLC38A1 (UniProt Q9H2H9), for which the log2 fold change is inactive: 0.03.

In the case of SLC25A31 (UniProt Q9H0C2), the log2 fold change was inactive: -0.011.

On to SLC25A14 isoform 3 (UniProt O95258), for which the log2 fold change was inactive: 0.007.

Turning to SLC38A2 (UniProt Q96QD8), the log2 fold change was inactive: -0.086.

On to SLC7A1 (UniProt P30825), for which the log2 fold change was inactive: -0.006.

With SLC25A20 (UniProt O43772), the log2 fold change was inactive: -0.021.

For the target SLC33A1 (UniProt O00400), the log2 fold change was inactive: 0.05.

SMAP2 (UniProt Q8WU79): the log2 fold change is inactive: -0.043.

Take SLC30A10 (UniProt Q6XR72): the log2 fold change was inactive: -0.09.

As for SLC35F6 (UniProt Q8N357), the log2 fold change was inactive: -0.034.

On to SLC39A3 (UniProt Q9BRY0), for which the log2 fold change was inactive: -0.053.

For the target SLC35B2 (UniProt Q8TB61), the log2 fold change was inactive: 0.018.

On to SLC25A51 (UniProt Q9H1U9), for which the log2 fold change is inactive: -0.02.

Take SLC25A6 (UniProt P12236): the log2 fold change was inactive: -0.012.

As for SLC25A15 (UniProt Q9Y619), the log2 fold change was inactive: 0.009.

In the case of SLC25A37 (UniProt Q9NYZ2), the log2 fold change is inactive: 0.

SLC9A1 (UniProt P19634): the log2 fold change was inactive: 0.023.

Consider SLC35A4 (UniProt L0R6Q1), for which the log2 fold change is inactive: 0.013.

For the target SLC25A38 (UniProt Q96DW6), the log2 fold change was inactive: 0.037.

As for SLC25A46 (UniProt Q96AG3), the log2 fold change is inactive: 0.04.

SLC39A14 (UniProt Q15043): the log2 fold change was inactive: 0.022.

On to SLK isoform 2 (UniProt Q9H2G2), for which the log2 fold change was inactive: 0.011.

Consider SLC43A1 (UniProt O75387), for which the log2 fold change was inactive: 0.039.

SLC25A22 (UniProt Q9H936): the log2 fold change was inactive: -0.018.

For the target SLC25A4 (UniProt P12235), the log2 fold change was inactive: -0.026.

SLC26A6 (UniProt Q9BXS9): the log2 fold change is inactive: 0.106.

On to SLC25A11 (UniProt Q02978), for which the log2 fold change was inactive: -0.046.

In the case of SLC25A42 (UniProt Q86VD7), the log2 fold change was inactive: -0.072.

For SLC27A2 (UniProt O14975), the log2 fold change was inactive: 0.089.

Consider SLC29A1 isoform 2 (UniProt Q99808), for which the log2 fold change was inactive: 0.036.

As for SMAP1 isoform 2 (UniProt Q8IYB5), the log2 fold change is inactive: -0.011.

For SLC7A2 isoform 3 (UniProt P52569), the log2 fold change was inactive: -0.303.

For SLC25A26 (UniProt Q70HW3), the log2 fold change was inactive: 0.081.

Consider SLC30A7 (UniProt Q8NEW0), for which the log2 fold change was inactive: 0.072.

Take SLC25A21 (UniProt Q9BQT8): the log2 fold change was inactive: -0.041.

With SLC44A2 (UniProt Q8IWA5), the log2 fold change is inactive: -0.065.

In the case of SLC6A8 isoform 2 (UniProt P48029), the log2 fold change was inactive: 0.018.

Compound in the next experiment: CCCS(=O)(=O)Nc1ccc(F)c(C(=O)c2c[nH]c3ncc(Cl)cc23)c1F
The description is as above. In a few lines: as §1
For the target SLC9A6 isoform 2 (UniProt Q92581), the log2 fold change is inactive: 0.024.

For the target SLC25A25 isoform 3 (UniProt Q6KCM7), the log2 fold change is inactive: -0.012.

Regarding SLC38A1 (UniProt Q9H2H9), the log2 fold change is inactive: -0.007.

Take SLC25A31 (UniProt Q9H0C2): the log2 fold change is inactive: 0.008.

Turning to SLC25A14 isoform 3 (UniProt O95258), the log2 fold change was inactive: 0.06.

On to SLC38A2 (UniProt Q96QD8), for which the log2 fold change is inactive: -0.037.

Consider SLC7A1 (UniProt P30825), for which the log2 fold change was inactive: 0.005.

Turning to SLC25A20 (UniProt O43772), the log2 fold change is inactive: 0.02.

Regarding SLC33A1 (UniProt O00400), the log2 fold change is inactive: 0.023.

For the target SMAP2 (UniProt Q8WU79), the log2 fold change was inactive: 0.011.

On to SLC30A10 (UniProt Q6XR72), for which the log2 fold change is inactive: 0.021.

For the target SLC35F6 (UniProt Q8N357), the log2 fold change was inactive: 0.027.

As for SLC39A3 (UniProt Q9BRY0), the log2 fold change is inactive: 0.025.

As to SLC35B2 (UniProt Q8TB61), the log2 fold change was inactive: 0.03.

With SLC25A51 (UniProt Q9H1U9), the log2 fold change was inactive: 0.222.

With SLC25A6 (UniProt P12236), the log2 fold change was inactive: 0.011.

For SLC25A15 (UniProt Q9Y619), the log2 fold change is inactive: -0.003.

As for SLC25A37 (UniProt Q9NYZ2), the log2 fold change was inactive: 0.021.

Regarding SLC9A1 (UniProt P19634), the log2 fold change was inactive: 0.141.

For SLC35A4 (UniProt L0R6Q1), the log2 fold change is inactive: -0.021.

For SLC25A38 (UniProt Q96DW6), the log2 fold change was inactive: 0.013.

Take SLC25A46 (UniProt Q96AG3): the log2 fold change is inactive: 0.022.

Turning to SLC39A14 (UniProt Q15043), the log2 fold change was inactive: -0.012.

Turning to SLK isoform 2 (UniProt Q9H2G2), the log2 fold change is inactive: -0.003.

Turning to SLC43A1 (UniProt O75387), the log2 fold change was inactive: 0.025.

As to SLC25A22 (UniProt Q9H936), the log2 fold change was inactive: 0.025.

As to SLC25A4 (UniProt P12235), the log2 fold change was inactive: 0.004.

With SLC26A6 (UniProt Q9BXS9), the log2 fold change is inactive: 0.086.

Consider SLC25A11 (UniProt Q02978), for which the log2 fold change is inactive: 0.001.

Take SLC25A42 (UniProt Q86VD7): the log2 fold change was inactive: 0.005.

Consider SLC27A2 (UniProt O14975), for which the log2 fold change was inactive: 0.009.

As for SLC29A1 isoform 2 (UniProt Q99808), the log2 fold change was inactive: 0.013.

SMAP1 isoform 2 (UniProt Q8IYB5): the log2 fold change is inactive: 0.083.

Turning to SLC7A2 isoform 3 (UniProt P52569), the log2 fold change is inactive: 0.009.

As to SLC25A26 (UniProt Q70HW3), the log2 fold change is inactive: -0.084.

In the case of SLC30A7 (UniProt Q8NEW0), the log2 fold change is inactive: 0.055.

As to SLC25A21 (UniProt Q9BQT8), the log2 fold change is inactive: -0.013.

For SLC44A2 (UniProt Q8IWA5), the log2 fold change was inactive: -0.026.

For SLC6A8 isoform 2 (UniProt P48029), the log2 fold change was inactive: -0.01.

The values are drawn from the supplement of paper PMC10849652.
